At least one compound was matched to its structure with a doubt left.
System: human endothelial cells
Assay: Fenofibrate time-course microarray in human endothelial cells, GO Term Finder clusters of selected genes
Details: 25 μM fenofibrate

SMILES: CC(C)OC(=O)C(C)(C)Oc1ccc(C(=O)c2ccc(Cl)cc2)cc1 [fenofibrate]
- effect on gene expression (gene selection analysis): affects genes related to lipid metabolism

Reference: US20080220977A1, “Computational strategy for discovering druggable gene networks from genome-wide RNA expression profiles” (GNI Ltd., priority 2005, published 2008)
